Results as given in article PMC3458735, “Design of a novel tryptophan-rich membrane-active antimicrobial peptide from the membrane-proximal region of the HIV glycoprotein, gp41” (Beilstein Journal of Organic Chemistry, 2012).
“And” between values parts separate entries of the source, which are not always exact repeats. Equal values may be shown once. Where no end group is shown, it is not given here.

Legend:
[1] = Differential scanning calorimetry with DPPC; conditions: for effect on the phase transitions of DPPC lipids (in words): peptide:lipid molar ratio 1:10, 0.5 mg/mL lipid, 20 mM phosphate, 130 mM NaCl, pH 7.4; for sharp transition of DPPC mixed with peptide: final heating scan, peptide:lipid 1:10, main transition of pure DPPC at 41 °C
[2] = Differential scanning calorimetry with DPPG; conditions: peptide:lipid 1:10; main transition of pure DPPG at 40 °C

KFAKKFKWFAKAAFKFFKK-NH2 [gp41w-FKA]
effect on the phase transitions of DPPC lipids (in words) [1]: very little effect
new transition(s) of DPPG mixed with peptide [2]: 47 °C

KWAKKWKWFAKAAWKWYKK-NH2 [gp41w-KA]
sharp transition of DPPC mixed with peptide [1]: ~ 40 °C
effect on the phase transitions of DPPC lipids (in words) [1]: very drastic effects
new transition(s) of DPPG mixed with peptide [2]: 47 °C

KWARLWRWFRITRWLWYIK-NH2 [gp41w-4R]
sharp transition of DPPC mixed with peptide [1]: ~ 36 °C
effect on the phase transitions of DPPC lipids (in words) [1]: very drastic effects
new transition(s) of DPPG mixed with peptide [2]: 33 °C and 36 °C

KWASLWNWFNITNWLWYIK-NH2 [gp41w]
effect on the phase transitions of DPPC lipids (in words) [1]: very little effect
new transition(s) of DPPG mixed with peptide [2]: ~ 43 °C
